Measured values: PMC12406199, “NanoDSF Screening for Anti-tubulin Agents Uncovers New Structure–Activity Insights” (Journal of Medicinal Chemistry, 2025)

Tested on: U87MG
Assay: cells
Parameters: MTT viability assay on U87MG glioblastoma cells
Conditions: Homo sapiens, U-87 MG, 72 h
Experimental: Glioblastoma cell culture routines, viability, and proliferation assays were performed as previously described. U87MG cells were maintained in complete MEM media supplemented with 10% FBS and 2 mM L-glutamine (Invitrogen, Paris, France). For cytotoxicity assays, cells were counted and plated in 96-well flat-bottom plates (50,000 cells/mL, 5000 cells per well). After 24 h, the cells were treated with increasing concentrations of the MTAs (0, 1, 5, 10, and 20–40 μM) in a vehicle solution, containing 0.05% DMSO. All concentrations were done in triplicates. The surviving cells were quantified after 72 h by the tetrazolium bromide MTT-assay, according to the manufacturer’s instructions. After cell lysis, the optical density was measured at 600 nm using a Multiskan MS Thermo plate reader (LabSystems, Waltham, MA, USA).

## CN1C[C@@H]2c3ccccc3Oc3ccc(Cl)cc3[C@H]2C1 (racemic) [ANP, Asenapine]
  IC50: 22.5 ± 4 µM
